Our source for the binding values is article PMC4884989.

By UniProt entry, the sequences of proteins in these tests, tags left out.
UniProt Q99816: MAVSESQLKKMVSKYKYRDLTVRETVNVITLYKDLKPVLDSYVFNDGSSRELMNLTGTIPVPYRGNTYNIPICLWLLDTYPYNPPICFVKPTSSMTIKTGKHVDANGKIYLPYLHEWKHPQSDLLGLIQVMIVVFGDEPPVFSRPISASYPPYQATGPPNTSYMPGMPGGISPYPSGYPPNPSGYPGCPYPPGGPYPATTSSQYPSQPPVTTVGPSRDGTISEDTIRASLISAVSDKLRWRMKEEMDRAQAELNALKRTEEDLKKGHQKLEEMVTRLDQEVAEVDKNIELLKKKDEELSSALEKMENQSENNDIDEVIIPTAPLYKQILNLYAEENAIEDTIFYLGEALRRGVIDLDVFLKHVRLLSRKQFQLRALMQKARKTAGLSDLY

For assay [1], the target named is GST-TSG101 (human) (UniProt Q99816). In words: pull-down; GST fusion bound to glutathione-Sepharose, in vitro translated prey; buffer A (1% Triton X-100, 20 mM Tris-HCl, 140 mM NaCl, 1 mM EGTA, 10% glycerol, 1.5 mM MgCl2, 1 mM DTT, pH 8.0), 2 h at 4°C; washed with buffer B (20 mM Tris-HCl, 150 mM NaCl, 1% NP-40, pH 8.0); western blot; only the target purified.
For assay [2] the target is unchanged. In words: pull-down; in vitro competitive binding: glutathione-Sepharose-immobilized GST-TSG101 with in vitro translated HA-Tal and increasing amounts of in vitro translated TSGΔ154-1054, buffer A, 100 μL, 4°C, 2 h; western blot; only the target purified. For orientation: In western blotting, separated proteins are transferred to a membrane and probed.
Assay [3] has as its target TSG101 expressed in TW01 cells (human) (UniProt Q99816). In words: co-IP; in vivo competitive binding: TW01 cells co-transfected with HA-Tal, TSG101 and increasing level of GFP-TSGΔ154-1054; immunoprecipitation with anti-TSG101 antibody (anti-GST as irrelevant antibody control), protein A sepharose, western blot.

No constants are given. Whether binding was seen depends on the method and setting. Binding seen in cells or lysates may run through a third protein. Some binding calls cover weakened binding; strength is not graded here. Sequences can lack the tags named with a protein.

B1: HA-Tal (TSG101-associated ligase), in vitro translated (enzyme, UniProt Q6UWE0 1-723)
chain: MPLFFRKRKPSEEARKRLEYQMCLAKEAGADDILDISKCELSEIPFGAFATCKVLQKKVLIVHTNHLTSLLPKSCSLLSLATIKVLDLHDNQLTALPDDLGQLTALQVLNVERNQLMQLPRSIGNLTQLQTLNVKDNKLKELPDTVGELRSLRTLNISGNEIQRLPQMLAHVRTLEMLSLDASAMVYPPREVCGAGTAAILQFLCKESGLEYYPPSQYLLPILEQDGIENSRDSPDGPTDRFSREELEWQNRFSDYEKRKEQKMLEKLEFERRLELGQREHTQLLQQSSSQKDEILQTVKEEQSRLEQGLSEHQRHLNAERQRLQEQLKQTEQNISSRIQKLLQDNQRQKKSSEILKSLENERIRMEQLMSITQEETESLRRRDVASAMQQMLTESCKNRLIQMAYESQRQNLVQQACSSMAEMDERFQQILSWQQMDQNKAISQILQESAMQKAAFEALQVKKDLMHRQIRSQIKLIETELLQLTQLELKRKSLDTESLQEMISEQRWALSSLLQQLLKEKQQREEELREILTELEAKSETRQENYWLIQYQRLLNQKPLSLKLQEEGMERQLVALLEELSAEHYLPIFAHHRLSLDLLSQMSPGDLAKVGVSEAGLQHEILRRVQELLDAARIQPELKPPMGEVVTPTAPQEPPESVRPSAPPAELEVQASECVVCLEREAQMIFLNCGHVCCCQQCCQPLRTCPLCRQDIAQRLRIYHSS
Turning to B1, the binding result with GST-TSG101 (human) [1] and with GST-TSG101 (human) [2] was “binds” each time.

B2: HA-Tal expressed in TW01 cells (enzyme, UniProt Q6UWE0 1-723)
chain: B1 chain
Regarding B2, in assay [3], the binding entry is given as “binds”.
